We go through one sequence from publication PMC5996148.

This is one part of the list.

Among the test systems are MGC23985 (human); MGC24103 (human); MGC24125 (human); MGC29506 (human); MGC31957 (human); MGRN1 (human); MIR16 (human); MITF (human); MKNK2 (human); MLC1 (human).
What all share (assay): protein microarray (ProtoArray v5.0), streptavidin-Alexa Fluor 647
Common to all, as to settings: 3'-biotin; 20 mM Tris (pH 7.5), 5 mM MgCl2, 100 mM KCl, 0.1% Tween-20, A/T-rich and random oligonucleotide blockers; temperature not stated; high values mean tight binding

Turning to “GGTGACAGGGGTATGGGGAGGGG [G4-2 biotinylated (Ct1)]”, the binding signal in the experiment on MGC23985 (human) is -0.386 z-score; in the experiment with MGC24103 (human), -0.396 z-score; with MGC24125 (human), -0.397 z-score; in the experiment with MGC29506 (human), -0.377 z-score; with MGC31957 (human), 5.59 z-score; with MGRN1 (human), -0.388 z-score. The binding signal in the experiment on MIR16 (human) is -0.379 z-score; with MITF (human), -0.362 z-score; with MKNK2 (human), -0.374 z-score; in the experiment on MLC1 (human) it was -0.378 z-score.
